# Experimental data: PubChem BioAssay AID1259308 (NCATS, 2017)
# Assay: 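Candidate targets for better recombinant protein yield in mammalian cells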 (primary screen)
# Cells: human HEK293 embryonic kidney cells stably expressing firefly luciferase (HEK-CMV-Luc2-Hygro)
# Reagents: single siRNA against human genes, 0.8 pmol siRNA per well
# Duration: 72 h
# Measured: 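Reporter luminescence and viable-cell signal on separate replicate plates, given as percent of non-targeting control and median/MAD z-scores, plus per-cell luciferase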
# Direction: total luciferase, z-score and total luciferase, % of control: higher = more reporter protein produced; luciferase per cell, z-score: higher = more reporter output per viable cell; viable cells, % of control: higher = more viable cells
# Active means: 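An siRNA counts as active if its total luciferase robust z-score exceeds 3; genes with two or more such siRNAs out of three were retested with fresh siRNAs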
# Calls: active = raised luciferase; inactive = no rise
# In all, the deposit lists about 59,000 reagents; this is an unselected part. In the full data, about 1,510 (2.6%) are marked active. 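Calls use total luciferase alone and ignore viability, so some active siRNAs may act by altering cell number.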 Reagents against one gene are numbered here.
"total luciferase, z-score","total luciferase, % of control","luciferase per cell, z-score","viable cells, % of control",outcome,gene,siRNA no.
-1.94,43.3,-0.342,52.9,inactive,SLC37A2,1
1.92,120,1.98,79.6,inactive,SLC37A2,2
-0.986,62.3,-1.04,91.6,inactive,SLC37A2,3
-0.536,71.2,0.58,68.3,inactive,ACOT6 (acyl-CoA thioesterase 6),1
0.768,97.2,0.658,91.3,inactive,ACOT6 (acyl-CoA thioesterase 6),2
0.249,86.8,-0.281,104,inactive,ACOT6 (acyl-CoA thioesterase 6),3
0.579,93.4,0.655,87.9,inactive,KCNK9 (potassium two pore domain channel subfamily K member 9),1
-0.613,69.7,-0.885,98.3,inactive,KCNK9 (potassium two pore domain channel subfamily K member 9),2
-1.1,60,-1.39,96.7,inactive,KCNK9 (potassium two pore domain channel subfamily K member 9),3
0.00813,82,-0.484,104,inactive,CLECL1 (C-type lectin like 1),1
-0.18,78.3,-0.552,101,inactive,CLECL1 (C-type lectin like 1),2
-0.782,66.3,-0.501,84.6,inactive,CLECL1 (C-type lectin like 1),3
-0.181,78.3,-0.0928,89.6,inactive,MDK (midkine),1
-0.017,81.5,-0.422,102,inactive,MDK (midkine),2
0.0749,83.4,-0.225,98.8,inactive,MDK (midkine),3

The list goes on, starting with the last 2 of the part before.
"total luciferase, z-score","total luciferase, % of control","luciferase per cell, z-score","viable cells, % of control",outcome,gene,siRNA no.
-0.017,81.5,-0.422,102,inactive,MDK (midkine),2
0.0749,83.4,-0.225,98.8,inactive,MDK (midkine),3
0.507,92,0.634,87,inactive,HP (haptoglobin),1
-0.594,70.1,0.0089,78.1,inactive,HP (haptoglobin),2
-1.19,58.1,-0.0955,66.6,inactive,HP (haptoglobin),3
-0.532,71.3,-0.924,102,inactive,GALNT1 (polypeptide N-acetylgalactosaminyltransferase 1),1
-1.22,57.6,-0.627,75.9,inactive,GALNT1 (polypeptide N-acetylgalactosaminyltransferase 1),2
-1.1,60.1,-1.39,96.9,inactive,GALNT1 (polypeptide N-acetylgalactosaminyltransferase 1),3
0.861,99,0.531,96.2,inactive,GCLC (glutamate-cysteine ligase catalytic subunit),1
-0.044,81,-0.112,93.2,inactive,GCLC (glutamate-cysteine ligase catalytic subunit),2
-1.04,61.3,-0.75,83.4,inactive,GCLC (glutamate-cysteine ligase catalytic subunit),3
